Earlier results as cited in patent US20110293526A1, “COMPOSITIONS AND METHODS TO MODULATE HAIR GROWTH” (University of Southern California, priority 2008, published 2011).
At least one compound was matched to its structure with a doubt left.

System: BMP versus TGF-beta and activin signaling
Conditions: reported in the literature; cited from earlier work

Structure (SMILES): c1cc(-c2cnn3cc(-c4ccc(OCCN5CCCCC5)cc4)cnc23)ccn1 [Dorsomorphin]
- specificity toward inhibiting BMP versus TGF-beta and activin signaling: preferential specificity toward inhibiting BMP versus TGF-beta and activin signaling
